Source: PubChem BioAssay AID540276 (National Center for Advancing Translational Sciences (NCATS), 2011)
Screen size: about 300,000 compounds; about 5,400 (1.8%) were called active. The inconclusive results got no clear call from the source; some entries with a clear call stand among them for comparison. Calls follow the shape of the full dose curve; tested in HEK293 cells. Potencies beside an inconclusive call are fits to weak or partial responses and may not hold up.

Experiment: qHTS for inhibitors of binding or entry into cells for Marburg Virus
Conditions: Marburg virus pseudotyped entry inhibition, cell reporter; activity change, negative = inhibition: at 37.8 µM (top of the series) unless noted
% is scaled to controls: 0 for no effect and ±100 for the full control effect; potency is read from the fitted curve at half-maximal effect.

| SMILES | Potency | activity change, negative = inhibition |
| --- | --- | --- |
| COc1ccc(N=C(NN)c2ccc3ccccc3n2)cc1 | inconclusive: 10 µM [inhibitor, partial curve, poor fit] |  |
| CCOC(=O)C(Cc1ccccc1)NC(=O)CNC(=O)CNC(=O)OCc1ccccc1 (stereo not given) |  | inactive: -23.7% |
| COc1ccc(CNC(=O)c2ccccc2[N+](=O)[O-])cc1 | inconclusive: 23.1 µM [activator, single point] |  |
| COc1cc(/C=C/C(=O)Nc2cccc(S(=O)(=O)NC3=NCCCCC3)c2)ccc1OCC#N | inconclusive: 15.8 µM [inhibitor, single point] |  |
| COc1cc(/C=C2\C(=N)N3N=CSC3=NC2=O)ccc1OS(=O)(=O)c1ccccc1 | inconclusive: 6.31 µM [inhibitor, single point] |  |
| COC(=O)CN1C(=O)CN=C(c2ccccc2Cl)c2cc(Br)ccc21 | inconclusive: 0.562 µM [inhibitor, full curve, poor fit] |  |
| CN(C)CCN(Cc1ccco1)C(=O)c1cc2c(Cl)nc3ccccc3c2s1 | active: 14.6 µM |  |
| C1=C(c2ccccc2)Nc2ccccc2N=C1c1ccccc1 |  | inactive: -9.3% |
| COCCn1c(SCc2ccccc2Cl)nc2c1c(=O)[nH]c(=O)n2C |  | inactive: 21.7% |
| CS(=O)(=O)N(CC(=O)NCCSCc1ccccc1)c1cc(C(F)(F)F)ccc1Cl | inconclusive: 35.5 µM [inhibitor, single point] |  |
| Cc1ccc(Cn2c(CCCNC(=O)c3ccco3)nc3ccccc32)cc1 | inconclusive: 20 µM [inhibitor, partial curve, poor fit] |  |
| O=c1cc(/C=C/c2ccccc2)oc2ccccc12 | inconclusive: 16.4 µM [inhibitor, single point] |  |
| Cc1ccc(NC(=O)CC2COc3ccccc3O2)cc1 (stereo not given) |  | inactive: 28.4% |
| Cc1nc2c(-c3ccccc3)c(C)nn2c(C)c1CCC(=O)NCc1ccc(Cl)cc1 |  | inactive: 6.1% [at 46.1 µM] |
| Cc1c(C=O)c2ccccc2n1Cc1ccccc1F | inconclusive: 3.55 µM [inhibitor, partial curve, poor fit] |  |
| CCOC(=O)c1c(N)n(C2CC(C)(C)NC(C)(C)C2)c2nc3ccccc3nc12 | inconclusive: 18.3 µM [inhibitor, single point] |  |
| Cc1cc(NC(=O)/C=C/C(=O)N(c2ccccc2C)C(C(=O)NC2CCCC2)c2ccc(F)cc2)no1 (stereo not given) | inconclusive: 20.6 µM [inhibitor, partial curve, poor fit] |  |
| Cc1ccc(-n2c(SCC(=O)Nc3cc(C)on3)nc3ccccc3c2=O)cc1 | inconclusive: 29.1 µM [inhibitor, single point] |  |
| Cc1nonc1C(=O)N/N=C/c1ccc(O)c(O)c1 |  | inactive: -0.0969% |
| Cc1cccc(-c2nc(CN3CCCC(C(=O)NCc4ccc(Cl)cc4)C3)c(C)o2)c1 (stereo not given) |  | inactive: 7.39% [at 46.1 µM] |
| CCc1ccc(N(CC(=O)NCc2ccco2)C(=O)CCC(=O)Nc2nccs2)cc1 | inconclusive: 35.5 µM [inhibitor, single point] |  |
| O=C(C1CCCCC1)N1CCN(S(=O)(=O)c2ccc(Br)cc2)CC1 | inconclusive: 35.5 µM [inhibitor, single point] |  |

| SMILES | Potency | activity change, negative = inhibition |
| --- | --- | --- |
| Cn1c2ccccc2c2cnn(CC(=O)Nc3cccc(F)c3)c(=O)c21 |  | inactive: 4.73% [at 46.1 µM] |
| Cc1ccc(OCC(O)Cn2c(=N)n(CCN3CCOCC3)c3ccccc32)cc1 (stereo not given) | inconclusive: 35.5 µM [inhibitor, single point] |  |
| CCC1(c2ccccc2)NC(=O)N(CC(=O)Nc2cc(S(=O)(=O)N3CCOCC3)ccc2OC(C)C)C1=O (stereo not given) |  | inactive: 1.59% |
| Cc1ccc2c(c1)C1CC(C)(O2)N(c2cccc(C(=O)N3CCN(c4ccccn4)CC3)c2)C(=O)N1 (stereo not given) |  | inactive: -11.7% [at 46.1 µM] |
| O=C(CSCc1ccccc1Cl)N1CCN(c2ccccn2)CC1 |  | inactive: 4.93% |
| COC(=O)c1ccc(NC(=O)Cn2c(-c3nonc3N)nc3ccccc32)cc1 | inconclusive: 25.1 µM [inhibitor, single point] |  |
| CC(=O)Nc1ccc(NC(=O)COC(=O)CCc2nc3ccccc3s2)cc1 |  | inactive: 8.55% [at 46.1 µM] |
| COc1ccc(-c2csc(NNC3=NCCCCC3)n2)cc1 | inconclusive: 35.5 µM [inhibitor, single point] |  |
| O=C1N/C(=N\N=C\c2cccs2)SC1Cc1cccc(Cl)c1 (stereo not given) | inconclusive: 12.6 µM [inhibitor, partial curve, poor fit] |  |
| Cn1c(SCC(N)=O)nnc1-c1ccc(S(=O)(=O)N2CCCC2)cc1 | inconclusive: 3.55 µM [inhibitor, single point] |  |
| Cc1nn(C(=O)c2nn(C)cc2[N+](=O)[O-])c(C)c1Br |  | inactive: 0.965% [at 46.1 µM] |
| O=[N+]([O-])c1cccc(CN2CCN(c3ncccn3)CC2)c1 | inconclusive: 1.26 µM [activator, single point] |  |
| CCCn1c(N2CCN(CC(=O)c3c[nH]c4ccccc34)CC2)nc2c1c(=O)[nH]c(=O)n2C | inconclusive: 35.5 µM [inhibitor, single point] |  |
| O=[N+]([O-])c1cccc(CSc2nc3ccccc3[nH]2)c1 | inconclusive: 1.26 µM [activator, single point] |  |
| COC(=O)Cn1ccc2cc(S(=O)(=O)N3CCCCCC3)ccc21 | inconclusive: 35.5 µM [inhibitor, single point] |  |
| O=C(O)c1ccccc1C=NNc1ccc([N+](=O)[O-])cn1 |  | inactive: 1.8% [at 46.1 µM] |
| COc1cc(C(F)(F)F)c(C(=O)N(C)c2ccc(Cl)cc2)cn1 | inconclusive: 17.8 µM [inhibitor, single point] |  |
| CS(=O)(=O)N1CCCC(C(=O)NCc2ccccn2)C1 (stereo not given) | inconclusive: 7.3 µM [inhibitor, single point] |  |
| CCCNC(=O)Cc1c(C)n(C(=O)c2ccc(Cl)cc2)c2ccc(OC)cc12 | inconclusive: 14.1 µM [inhibitor, single point] |  |
| CC(C)CNC(=S)NNC(=O)c1csc2c1CCC(C)C2 (stereo not given) | inconclusive: 7.3 µM [inhibitor, partial curve, poor fit] |  |
| Cc1ccc(Cn2nnc3c(=O)[nH]c(C4CCN(S(=O)(=O)c5ccc(F)cc5)CC4)nc32)cc1 | inconclusive: 23.1 µM [inhibitor, partial curve, poor fit] |  |
| COc1ccc(NS(=O)(=O)c2cc(NC(=O)CNC(=O)c3cccc(OC)c3)ccc2C)cc1 | inconclusive: 7.94 µM [inhibitor, partial curve, poor fit] |  |

| SMILES | Potency | activity change, negative = inhibition |
| --- | --- | --- |
| COc1cc(NC2=Nc3cccc4cccc2c34)cc(OC)c1OC | inconclusive: 35.5 µM [inhibitor, single point] |  |
| COc1ccc(N(C(=O)c2snc(C(N)=O)c2N)C(CC(C)C)C(=O)NCC2CCCO2)cc1 (stereo not given) | inconclusive: 0.501 µM [inhibitor, full curve, poor fit] |  |
| COc1ccc(NC(=O)Nc2cc(C)ccc2F)cc1 | inconclusive: 0.0461 µM [activator, full curve, poor fit] |  |
| O=c1cc(-c2ccco2)oc2ccccc12 |  | inactive: 21.6% [at 46.1 µM] |
| Cc1cccc(CCNC(=O)C2CCCN(c3ncnc4c3nc3n4CCCCC3)C2)c1 (stereo not given) | inconclusive: 35.5 µM [inhibitor, single point] |  |
| COc1ccc(CN(CCc2c[nH]c3ccccc23)Cc2ccc(OC)cc2)cc1 | inconclusive: 15.8 µM [inhibitor, partial curve, poor fit] |  |
| N#Cc1nc(Cc2ccccc2)oc1NCCN1CCOCC1 | inconclusive: 16.4 µM [activator, partial curve, poor fit] |  |
| CN(C)c1cccc(C(=O)OCC(=O)N(C)c2ccccc2)c1 | inconclusive: 5.62 µM [activator, partial curve] |  |
| O=C(OCC(=O)N1CCCC1)c1ccccc1OCc1ccccc1 | inconclusive: 10 µM [activator, partial curve, poor fit] |  |
| COc1cc(CN(C)C(C)C(=O)Nc2ccc([N+](=O)[O-])cc2Cl)ccc1OC(F)F (stereo not given) | inconclusive: 17.8 µM [inhibitor, single point] |  |
| CC(=O)c1ccc(OCC(O)CN2CCN(CCN3C(=O)c4cccc5cccc(c45)C3=O)CC2)cc1 (stereo not given) | inconclusive: 12.6 µM [inhibitor, single point] |  |
| COc1ccc(Br)cc1S(=O)(=O)NCCN1CCOCC1 | inconclusive: 2.82 µM [inhibitor, single point] |  |
| O=c1[nH]c(CSc2ccccn2)nc2c1oc1ccccc12 | inconclusive: 2 µM [inhibitor, full curve, poor fit] |  |
| CC(=Nc1ccccc1)c1sc2ccccc2c1O | inconclusive: 7.08 µM [activator, partial curve, poor fit] |  |
| Cc1ccc(CSc2nc3nc(C)cc(C)c3c(=O)[nH]2)cc1 | inconclusive: 3.98 µM [inhibitor, full curve, poor fit] |  |
| O=C(CN1C(=O)c2ccccc2S1(=O)=O)Nc1cc(S(=O)(=O)N2CCCCC2)ccc1Cl | inconclusive: 0.891 µM [activator, single point] |  |
| O=C(N/N=C/c1cccc2cccnc12)[C@H]1C[C@@H]1c1ccccc1 | inconclusive: 39.8 µM [inhibitor, partial curve, poor fit] |  |
| O=C(CSc1nc(SCC(=O)NCc2ccccc2)n(-c2ccccc2)n1)NCc1ccccc1 | inconclusive: 29.1 µM [inhibitor, single point] |  |
| Cc1cc(C)cc(N(C(=O)c2nsc(Cl)c2Cl)C(C(=O)NC2CCCC2)c2ccc(O)cc2)c1 (stereo not given) | inconclusive: 35.5 µM [inhibitor, single point] |  |
| CCCNS(=O)(=O)c1ccc(OCC(=O)OC)cc1 | inconclusive: 0.092 µM [activator, partial curve, poor fit] |  |
| Cc1cc(C(=O)CSc2nc3ccccc3[nH]2)c(C)n1C | inconclusive: 29.1 µM [inhibitor, single point] |  |

Some of these compounds in order of SMILES length, largest number first.

| SMILES | Potency | activity change, negative = inhibition |
| --- | --- | --- |
| CC(=O)c1ccc(OCC(O)CN2CCN(CCN3C(=O)c4cccc5cccc(c45)C3=O)CC2)cc1 (stereo not given) | inconclusive: 12.6 µM [inhibitor, single point] |  |
| COc1cc(NC2=Nc3cccc4cccc2c34)cc(OC)c1OC | inconclusive: 35.5 µM [inhibitor, single point] |  |
| O=c1[nH]c(CSc2ccccn2)nc2c1oc1ccccc12 | inconclusive: 2 µM [inhibitor, full curve, poor fit] |  |
| CCCNS(=O)(=O)c1ccc(OCC(=O)OC)cc1 | inconclusive: 0.092 µM [activator, partial curve, poor fit] |  |
